Our source for the log2 fold change values is the supplement of paper PMC12819154, “High-throughput peptide-centric local stability assay extends protein–ligand identification to membrane proteins, tissues and bacteria” (Nature Structural & Molecular Biology, 2025).

The chains behind the UniProt entries cited, without tags or fusion partners. Where a name states a change or a piece, a line headed by the entry shows the natural chain unless it says otherwise.
UniProt Q15329: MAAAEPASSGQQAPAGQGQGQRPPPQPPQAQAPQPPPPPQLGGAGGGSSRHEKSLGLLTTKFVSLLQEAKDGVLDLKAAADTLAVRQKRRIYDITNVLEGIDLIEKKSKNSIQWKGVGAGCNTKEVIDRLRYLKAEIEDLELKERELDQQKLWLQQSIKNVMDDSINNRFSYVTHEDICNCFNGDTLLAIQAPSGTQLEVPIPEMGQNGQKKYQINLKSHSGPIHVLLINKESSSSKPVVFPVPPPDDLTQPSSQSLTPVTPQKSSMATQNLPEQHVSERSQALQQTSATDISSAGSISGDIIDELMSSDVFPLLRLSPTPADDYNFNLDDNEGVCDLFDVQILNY
UniProt Q15059, whole entry, looked up: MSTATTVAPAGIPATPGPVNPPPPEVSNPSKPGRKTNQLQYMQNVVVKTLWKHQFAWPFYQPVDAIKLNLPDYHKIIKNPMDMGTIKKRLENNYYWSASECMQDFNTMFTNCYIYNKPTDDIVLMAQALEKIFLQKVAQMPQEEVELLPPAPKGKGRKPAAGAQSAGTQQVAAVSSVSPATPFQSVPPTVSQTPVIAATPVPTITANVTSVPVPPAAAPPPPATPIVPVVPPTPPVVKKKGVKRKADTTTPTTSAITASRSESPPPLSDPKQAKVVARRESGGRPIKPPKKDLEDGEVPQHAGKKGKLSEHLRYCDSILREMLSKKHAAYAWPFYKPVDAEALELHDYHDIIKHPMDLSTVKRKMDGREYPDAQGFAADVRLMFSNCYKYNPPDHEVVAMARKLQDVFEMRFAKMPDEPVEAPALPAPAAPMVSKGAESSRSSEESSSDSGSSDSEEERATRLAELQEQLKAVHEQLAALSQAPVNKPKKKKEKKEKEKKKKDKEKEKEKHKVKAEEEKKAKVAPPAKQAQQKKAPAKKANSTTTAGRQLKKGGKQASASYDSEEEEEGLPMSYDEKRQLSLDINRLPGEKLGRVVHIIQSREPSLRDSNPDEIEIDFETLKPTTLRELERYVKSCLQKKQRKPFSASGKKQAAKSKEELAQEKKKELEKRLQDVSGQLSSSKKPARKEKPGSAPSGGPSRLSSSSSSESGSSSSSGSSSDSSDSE
UniProt Q15404: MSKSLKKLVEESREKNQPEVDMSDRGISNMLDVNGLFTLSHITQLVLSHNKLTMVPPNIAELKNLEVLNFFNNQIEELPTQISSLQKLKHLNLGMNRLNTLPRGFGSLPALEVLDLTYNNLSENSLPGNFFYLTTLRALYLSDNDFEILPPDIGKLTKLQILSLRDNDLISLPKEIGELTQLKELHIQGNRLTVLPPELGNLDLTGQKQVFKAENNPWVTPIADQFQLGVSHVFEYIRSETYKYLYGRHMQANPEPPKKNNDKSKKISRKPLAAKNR
UniProt Q15906, whole entry: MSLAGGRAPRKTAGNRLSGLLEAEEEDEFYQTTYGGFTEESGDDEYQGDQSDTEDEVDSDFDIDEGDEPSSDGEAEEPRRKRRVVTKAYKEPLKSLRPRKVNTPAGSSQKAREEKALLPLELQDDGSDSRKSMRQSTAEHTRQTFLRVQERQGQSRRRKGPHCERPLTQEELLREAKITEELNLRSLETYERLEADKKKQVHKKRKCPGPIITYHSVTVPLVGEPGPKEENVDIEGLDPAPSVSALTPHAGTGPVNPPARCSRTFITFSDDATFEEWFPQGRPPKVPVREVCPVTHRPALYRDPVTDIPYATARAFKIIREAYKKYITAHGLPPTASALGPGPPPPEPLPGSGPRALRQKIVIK
UniProt Q2VPB7: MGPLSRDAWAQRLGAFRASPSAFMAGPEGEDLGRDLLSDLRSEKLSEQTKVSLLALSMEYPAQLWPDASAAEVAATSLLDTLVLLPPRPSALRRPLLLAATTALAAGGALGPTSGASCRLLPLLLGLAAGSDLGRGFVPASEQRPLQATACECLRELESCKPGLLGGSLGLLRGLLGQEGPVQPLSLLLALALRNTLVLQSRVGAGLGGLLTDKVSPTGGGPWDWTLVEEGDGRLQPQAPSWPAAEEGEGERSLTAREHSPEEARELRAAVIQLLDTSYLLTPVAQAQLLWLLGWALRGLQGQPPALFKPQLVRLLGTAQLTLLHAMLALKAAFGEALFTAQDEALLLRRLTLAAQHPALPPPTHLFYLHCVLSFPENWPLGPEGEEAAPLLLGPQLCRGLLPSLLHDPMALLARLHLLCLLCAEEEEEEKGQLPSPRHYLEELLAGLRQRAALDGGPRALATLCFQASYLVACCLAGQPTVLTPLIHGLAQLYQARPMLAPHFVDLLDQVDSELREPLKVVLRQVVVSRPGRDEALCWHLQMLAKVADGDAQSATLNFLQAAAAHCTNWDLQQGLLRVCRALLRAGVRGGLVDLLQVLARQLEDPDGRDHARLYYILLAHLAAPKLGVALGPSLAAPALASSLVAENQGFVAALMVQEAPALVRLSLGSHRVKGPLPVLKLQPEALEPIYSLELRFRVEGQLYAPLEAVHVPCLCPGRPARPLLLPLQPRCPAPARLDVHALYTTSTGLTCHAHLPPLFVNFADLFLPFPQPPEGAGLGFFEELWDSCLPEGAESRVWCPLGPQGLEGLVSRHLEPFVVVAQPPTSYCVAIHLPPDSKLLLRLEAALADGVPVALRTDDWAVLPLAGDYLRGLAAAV
UniProt Q15735: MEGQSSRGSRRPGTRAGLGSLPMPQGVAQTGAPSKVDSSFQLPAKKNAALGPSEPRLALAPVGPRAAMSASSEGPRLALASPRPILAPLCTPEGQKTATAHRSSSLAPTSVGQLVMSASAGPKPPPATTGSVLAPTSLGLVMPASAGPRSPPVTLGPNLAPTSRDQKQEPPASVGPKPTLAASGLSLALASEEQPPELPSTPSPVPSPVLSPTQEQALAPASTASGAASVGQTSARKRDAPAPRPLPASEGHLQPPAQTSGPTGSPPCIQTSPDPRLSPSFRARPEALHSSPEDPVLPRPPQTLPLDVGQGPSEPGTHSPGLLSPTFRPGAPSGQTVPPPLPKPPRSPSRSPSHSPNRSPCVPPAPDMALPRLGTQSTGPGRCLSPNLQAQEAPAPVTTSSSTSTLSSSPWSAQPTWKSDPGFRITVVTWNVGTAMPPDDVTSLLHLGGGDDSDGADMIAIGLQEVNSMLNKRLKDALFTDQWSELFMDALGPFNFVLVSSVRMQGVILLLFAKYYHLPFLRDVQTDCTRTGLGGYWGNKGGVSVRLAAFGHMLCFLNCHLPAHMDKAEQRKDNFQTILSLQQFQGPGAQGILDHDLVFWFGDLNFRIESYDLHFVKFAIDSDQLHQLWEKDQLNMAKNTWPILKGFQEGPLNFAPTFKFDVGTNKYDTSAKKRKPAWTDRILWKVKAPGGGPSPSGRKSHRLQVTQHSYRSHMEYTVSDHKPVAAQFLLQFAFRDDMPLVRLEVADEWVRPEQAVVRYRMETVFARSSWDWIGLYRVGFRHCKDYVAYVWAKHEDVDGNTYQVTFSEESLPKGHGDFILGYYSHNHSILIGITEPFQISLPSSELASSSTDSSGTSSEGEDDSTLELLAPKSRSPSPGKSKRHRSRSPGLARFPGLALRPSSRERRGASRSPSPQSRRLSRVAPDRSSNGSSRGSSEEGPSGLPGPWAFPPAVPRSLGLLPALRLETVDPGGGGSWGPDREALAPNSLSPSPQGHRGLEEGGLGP
UniProt Q3V6T2: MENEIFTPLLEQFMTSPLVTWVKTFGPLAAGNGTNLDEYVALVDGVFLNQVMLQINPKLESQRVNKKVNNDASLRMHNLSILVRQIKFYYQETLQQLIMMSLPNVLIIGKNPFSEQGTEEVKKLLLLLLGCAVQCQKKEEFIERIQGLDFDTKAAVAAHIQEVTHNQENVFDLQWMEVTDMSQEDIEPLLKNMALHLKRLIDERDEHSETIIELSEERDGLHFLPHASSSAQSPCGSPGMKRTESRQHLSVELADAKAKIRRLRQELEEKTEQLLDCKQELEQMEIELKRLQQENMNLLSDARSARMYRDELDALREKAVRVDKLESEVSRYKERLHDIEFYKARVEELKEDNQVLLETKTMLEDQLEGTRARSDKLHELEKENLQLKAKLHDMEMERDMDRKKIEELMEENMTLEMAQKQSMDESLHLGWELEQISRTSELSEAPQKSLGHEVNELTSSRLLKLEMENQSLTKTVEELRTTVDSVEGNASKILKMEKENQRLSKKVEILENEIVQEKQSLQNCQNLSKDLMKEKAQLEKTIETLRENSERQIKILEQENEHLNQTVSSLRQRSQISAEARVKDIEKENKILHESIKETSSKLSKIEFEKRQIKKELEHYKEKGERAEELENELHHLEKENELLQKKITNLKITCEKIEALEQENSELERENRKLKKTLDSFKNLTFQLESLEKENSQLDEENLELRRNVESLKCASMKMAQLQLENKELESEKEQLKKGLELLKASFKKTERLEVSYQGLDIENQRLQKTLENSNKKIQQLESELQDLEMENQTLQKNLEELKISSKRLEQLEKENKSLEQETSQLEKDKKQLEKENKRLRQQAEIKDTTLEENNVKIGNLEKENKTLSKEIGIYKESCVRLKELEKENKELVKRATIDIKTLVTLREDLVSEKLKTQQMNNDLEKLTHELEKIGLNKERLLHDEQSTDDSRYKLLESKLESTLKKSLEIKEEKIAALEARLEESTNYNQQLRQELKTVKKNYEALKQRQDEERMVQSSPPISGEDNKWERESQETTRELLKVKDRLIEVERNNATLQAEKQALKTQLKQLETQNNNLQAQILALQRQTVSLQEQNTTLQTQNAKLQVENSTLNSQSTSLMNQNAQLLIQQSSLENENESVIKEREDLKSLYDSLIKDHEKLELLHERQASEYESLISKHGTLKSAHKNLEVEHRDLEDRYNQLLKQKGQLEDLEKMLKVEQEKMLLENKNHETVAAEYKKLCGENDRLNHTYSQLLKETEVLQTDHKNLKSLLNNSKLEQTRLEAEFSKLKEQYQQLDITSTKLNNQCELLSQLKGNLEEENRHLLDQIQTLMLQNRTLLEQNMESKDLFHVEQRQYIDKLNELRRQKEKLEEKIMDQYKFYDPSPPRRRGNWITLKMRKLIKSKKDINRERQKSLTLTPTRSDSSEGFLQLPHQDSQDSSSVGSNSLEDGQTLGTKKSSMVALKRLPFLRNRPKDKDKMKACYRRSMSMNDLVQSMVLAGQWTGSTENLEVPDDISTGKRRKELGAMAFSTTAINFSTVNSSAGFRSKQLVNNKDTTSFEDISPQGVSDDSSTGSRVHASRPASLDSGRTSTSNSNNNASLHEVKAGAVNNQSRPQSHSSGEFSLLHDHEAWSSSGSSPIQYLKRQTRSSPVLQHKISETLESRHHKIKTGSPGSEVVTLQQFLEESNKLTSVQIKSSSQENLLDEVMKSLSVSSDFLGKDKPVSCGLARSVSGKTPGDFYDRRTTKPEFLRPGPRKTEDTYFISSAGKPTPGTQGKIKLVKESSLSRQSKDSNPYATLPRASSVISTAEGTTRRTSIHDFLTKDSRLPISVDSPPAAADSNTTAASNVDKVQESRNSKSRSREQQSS

Some of the results follow. Small differences around the control level are noise.

Compound in the experiment: CN[C@@H]1C[C@H]2O[C@@](C)([C@@H]1OC)n1c3ccccc3c3c4c(c5c6ccccc6n2c5c31)C(=O)NC4 [staurosporine]
Kind of experiment: log2 fold change of tryptic peptide abundance, ligand vs vehicle (limited proteolysis) (log2 ratio); higher = more trypsin-susceptible (destabilized). Conditions: ligand concentration: 20 uM; sample: K562 cleared lysate; digestion: 4 min, 22 C (HT-PELSA RT4min, Orbitrap Astral).
For the target “UniProt Q15329 (peptide sequence: IYDITNVLEGIDLIEKK, peptide start residue: 91)”, the log2 fold change stood at 0.319.

“BRD3 (peptide sequence: RKADTTTPTTSAITASR, peptide start residue: 244) (UniProt Q15059)”: the log2 fold change was -0.433.

In the case of “RSU1 (peptide sequence: EIGELTQLK, peptide start residue: 175) (UniProt Q15404)”, the log2 fold change is -0.336.

With “VPS72 (peptide sequence: PALYRDPVTDIPYATAR, peptide start residue: 298) (UniProt Q15906)”, the log2 fold change is 0.631.

With “AP5B1 (peptide sequence: LLGTAQLTLLHAMLALK, peptide start residue: 315) (UniProt Q2VPB7)”, the log2 fold change came out at 0.235.

For the target “FSCN1 (peptide sequence: VNASASSLK, peptide start residue: 33) (UniProt Q16658)”, the log2 fold change is -0.248.

Regarding “INPP5J (peptide sequence: SLGLLPALR, peptide start residue: 957) (UniProt Q15735)”, the log2 fold change is -0.041.

Take “CCDC88A (peptide sequence: MVQSSPPISGEDNKWER, peptide start residue: 1016) (UniProt Q3V6T2)”: the log2 fold change was -0.366.
